This experiment concerns Swiss mice, Sarcoma 180 sc, mean tumor weight T/C. Kind of experiment: NCI In Vivo Anticancer Drug Screen. Data for tumor model Sarcoma 180 (subcutaneous) in Swiss mice. The settings on record: T/C endpoint: mean tumor weight, higher T/C = larger tumour; for T/C: evaluated on day 8. In a few lines: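 Transplantable tumors were established in mice, compound was given, then survival or tumor size was recorded. The treated value was divided by the vehicle-control value.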

The mark [1] stands for this setting: dose: 100.0 mg/kg/injection, schedule: Q01DX007 (ip), vehicle: carboxymethylcellulose (CMC).
Setting [2] is: dose: 250.0 mg/kg/injection, schedule: Q01DX007 (ip), vehicle: carboxymethylcellulose (CMC).
[3] abbreviates: dose: 110.0 mg/kg/injection, schedule: Q01DX007 (ip), vehicle: other.
The mark [4] stands for this setting: dose: 166.0 mg/kg/injection, schedule: Q01DX007 (ip), vehicle: other.

The structures appear in SMILES notation. The list does not hold the whole screen: it is rich in T/C values a quarter to a half above the control, in often repeated tests (any T/C) and in doses without a T/C. Other doses and runs of a compound stand elsewhere. T/C: endpoint of the treated group in % of that of the vehicle group. Schedules are NCI's codes, taken here to give the interval after Q, in days (D) or hours (H), and the number of doses after X. Some T/C values carry the count of animals alive at the toxicity check (mostly the fifth day); where none is given, no animal had died by that day. Some entries hold several experiments; the values are given in rising order. Some entries give survivors of the animals treated and no T/C: the source files T/C as zero there, which appears to mark a toxic dose or a test without result, not a measured value. Counts of survivors are from the toxicity check (mostly the fifth day) where no day follows; animals may have died later. Some schedule codes hold Z or #, which are not explained here.

In the case of `CN(C)c1ccc(/C=C\c2ccnc3ccccc23)cc1`, the T/C (dose: 10.0 mg/kg/injection, schedule: Q01DX007 (ip), vehicle: methylcellulose (MC)) is 143 % of control. In addition, the survivor count (dose: 100.0 mg/kg/injection, schedule: Q01DX007 (ip), vehicle: water) is given as 1 of 6.
For `CC(=O)[C@@]1(O)CC[C@H]2[C@@H]3C[C@H](C)C4=CC(=O)C=C[C@]4(C)[C@@]3(F)[C@@H](O)C[C@@]21C`, the T/C (dose: 13.8 mg/kg/injection, schedule: Q01DX007 (sc), vehicle: steroid suspending solution) is 138 % of control. For the same compound, the survivor count (dose: 27.5 mg/kg/injection, schedule: Q#A X014 (sc), vehicle: steroid suspending solution) is 1 of 7; the survivor count (dose: 41.5 mg/kg/injection, schedule: Q#A X014 (sc), vehicle: steroid suspending solution) is recorded as 1 of 7; the survivor count (dose: 62.5 mg/kg/injection, schedule: Q#A X014 (sc), vehicle: steroid suspending solution) is listed as 3 of 7; the survivor count (dose: 125.0 mg/kg/injection, schedule: Q01DX007 (sc), vehicle: steroid suspending solution) is listed as 2 of 6; the survivor count (dose: 187.5 mg/kg/injection, schedule: Q01DX007 (sc), vehicle: steroid suspending solution) is 3 of 6; the survivor count (dose: 2000.0 mg/kg/injection, schedule: Q01DX007 (sc), vehicle: steroid suspending solution) is reported as 4 of 7.
As for `CC(C)=C(Br)CC[C@@H](C)[C@H]1CC[C@@]2(C)C3=C(CC[C@]12C)[C@@]1(C)CC[C@H](O)C(C)(C)[C@@H]1CC3`, where the note is “dose: 250.0 mg/kg/injection, schedule: Q01DX007 (sc), vehicle: steroid suspending solution”, the T/C was 133 % of control.
For `COc1ccccc1NC(=O)CSC(N)=O`, the survivor count (dose: 500.0 mg/kg/injection, schedule: Q01DX007 (ip), vehicle: carboxymethylcellulose (CMC)) is 3 of 7.
As for `CC(=O)Nc1ccc(/C=N/Nc2ccc([N+](=O)[O-])cn2)cc1`, the survivor count reads like this: under setting [1], 2 of 6; (dose: 125.0 mg/kg/injection, schedule: Q#A X014 (ip), vehicle: methylcellulose (MC)) 3 of 6; (dose: 150.0 mg/kg/injection, schedule: Q01DX007 (ip), vehicle: carboxymethylcellulose (CMC)) 1 of 6; (dose: 187.5 mg/kg/injection, schedule: Q#A X014 (ip), vehicle: methylcellulose (MC)) 1 of 6.
With `Nc1nc(SC2CCCCC2)c2[nH]cnc2n1`, for the setting “dose: 480.0 mg/kg/injection, schedule: Q01DX007 (ip), vehicle: carboxymethylcellulose (CMC)”, the survivor count was 3 of 6.
On to `CC1=C(CO)C(=O)O[C@@H]([C@@H](C)[C@H]2CC[C@H]3[C@@H]4C[C@H]5O[C@]56[C@@H](O)C=CC(=O)[C@]6(C)[C@H]4CC[C@]23C)C1`, for which the T/C (dose: 10.0 mg/kg/injection, schedule: Q01DX007 (ip), vehicle: carboxymethylcellulose (CMC)) was 128 % of control. Besides, the survivor count runs as follows: (dose: 22.0 mg/kg/injection, schedule: Q01DX007 (ip), vehicle: saline) 2 of 4; (dose: 27.0 mg/kg/injection, schedule: Q01DX007 (ip), vehicle: saline) 2 of 6; (dose: 30.0 mg/kg/injection, schedule: Q01DX007 (ip), vehicle: carboxymethylcellulose (CMC)) 0 of 4 and 2 of 4; (dose: 30.0 mg/kg/injection, schedule: Q01DX007 (ip), vehicle: saline) 1 of 4; (dose: 36.0 mg/kg/injection, schedule: Q01DX007 (ip), vehicle: saline) 0 of 4; (dose: 40.0 mg/kg/injection, schedule: Q01DX007 (ip), vehicle: carboxymethylcellulose (CMC)) 0 of 4 and 1 of 4. Further, the survivor count is 0 of 4 and 1 of 6 (dose: 40.0 mg/kg/injection, schedule: Q01DX007 (ip), vehicle: saline); 0 of 4 (dose: 50.0 mg/kg/injection, schedule: Q01DX007 (ip), vehicle: saline).
As to `CC(=O)Nc1c(Cl)c(Cl)c2c(c1Cl)Cc1cc(F)ccc1-2`, the survivor count (dose: 250.0 mg/kg/injection, schedule: Q01DX007 (ip), vehicle: saline) is reported as 2 of 6 and the survivor count (dose: 375.0 mg/kg/injection, schedule: Q#A X014 (ip), vehicle: saline) is given as 3 of 6.
Consider `CO/[N+]([O-])=C\C(=O)N/C=C/C(=O)O`, for which the survivor count runs as follows: under setting [1], 0 of 6; (dose: 200.0 mg/kg/injection, schedule: Q01DX007 (ip), vehicle: carboxymethylcellulose (CMC)) 0 of 6; (dose: 400.0 mg/kg/injection, schedule: Q01DX007 (ip), vehicle: carboxymethylcellulose (CMC)) 0 of 6.
In the case of `CC(=O)OCC(=O)[C@@]1(O)CC[C@H]2[C@@H]3C[C@H](C)C4=CC(=O)CC[C@]4(C)[C@H]3[C@@H](O)C[C@@]21C`, where the note is “dose: 100.0 mg/kg/injection, schedule: Q#A X014 (sc), vehicle: steroid suspending solution”, the survivor count was 3 of 6.
In the case of `Cc1ncc(CO)c(C)c1O`, the survivor count (dose: 220.0 mg/kg/injection, schedule: Q01DX007 (ip), vehicle: carboxymethylcellulose (CMC)) is 5 of 10.
Consider `CCCC(=O)OCC1OC(n2cnc3c(=S)nc[nH]c32)C(OC(=O)CCC)C1OC(=O)CCC` (stereo unspecified), for which the survivor count under setting [2] is 0 of 6 and 2 of 6.
Regarding `CO[C@H]1CC[C@@]2(C)[C@@H](CC[C@H]3[C@@H]4C[C@H](O)C[C@@]4(C)CC[C@@H]32)C1`, the survivor count reads like this: (dose: 1.25 mg/kg/injection, schedule: Q#A X014 (ip), vehicle: distilled water + alcohol) 2 of 6; (dose: 2.5 mg/kg/injection, schedule: Q#A X014 (ip), vehicle: distilled water + alcohol) 3 of 6; (dose: 10.0 mg/kg/injection, schedule: Q#A X014 (ip), vehicle: distilled water + alcohol) 3 of 6; (dose: 250.0 mg/kg/injection, schedule: Q#A X014 (ip), vehicle: distilled water + alcohol) 2 of 6.
`CNC(C)C(O)c1ccccc1` (stereo unspecified): the survivor count (dose: 300.0 mg/kg/injection, schedule: Q01DX007 (ip), vehicle: saline) was 2 of 6 and the survivor count (dose: 450.0 mg/kg/injection, schedule: Q01DX007 (ip), vehicle: saline) was 0 of 6.
Consider `CCC(CC)C(O)CCCN(C)C` (stereo unspecified), for which the survivor count (dose: 800.0 mg/kg/injection, schedule: Q01DX007 (ip), vehicle: saline) is given as 0 of 7.
In the case of `CC(=O)c1cccc(NC2C(N)C(NC(=O)N(C)C)(C(C)O)C(C)(O)C2(O)COC(=O)c2c(C)cccc2O)c1` (stereo unspecified), the survivor count (dose: 4.0 mg/kg/injection, schedule: Q01DX007 (ip), vehicle: saline) is recorded as 3 of 8.
Consider `CC(=O)Nc1c(Cl)c(Cl)c2c(c1Cl)Cc1cc(Cl)c(Cl)cc1-2`, for which the survivor count is, setting by setting: (dose: 25.0 mg/kg/injection, schedule: Q01DX007 (ip), vehicle: carboxymethylcellulose (CMC)) 2 of 6; (dose: 48.0 mg/kg/injection, schedule: Q01DX007 (ip), vehicle: other) 0 of 6; (dose: 50.0 mg/kg/injection, schedule: Q01DX007 (ip), vehicle: carboxymethylcellulose (CMC)) 1 of 6; (dose: 74.0 mg/kg/injection, schedule: Q01DX007 (ip), vehicle: other) 0 of 6 and 1 of 6; under setting [1], 0 of 6; (dose: 110.0 mg/kg/injection, schedule: Q01DX007 (ip), vehicle: carboxymethylcellulose (CMC)) 1 of 6. For the same compound, the survivor count under setting [3] was 1 of 6 and 2 of 6; the survivor count (dose: 166.0 mg/kg/injection, schedule: Q01DX007 (ip), vehicle: carboxymethylcellulose (CMC)) is given as 2 of 6; the survivor count under setting [4] was 0 of 6 and 2 of 6; the survivor count under setting [2] is on record as 0 of 6; the survivor count (dose: 250.0 mg/kg/injection, schedule: Q01DX007 (ip), vehicle: other) is listed as 1 of 6; the survivor count (dose: 375.0 mg/kg/injection, schedule: Q01DX007 (ip), vehicle: carboxymethylcellulose (CMC)) is recorded as 0 of 6. For the same compound, the survivor count (dose: 375.0 mg/kg/injection, schedule: Q01DX007 (ip), vehicle: other) was 0 of 6. Also, the T/C was 29 [5 of 6 alive] and 31 % of control under setting [3]; 28 % of control under setting [4].

Values taken from PubChem BioAssay AID342 (DTP/NCI, 2004).
